# The other results are listed elsewhere or left out.
# B1: RbmA (Vibrio cholerae), A0A2H4NFB8 (protein)
# chain: MSNFKGSIMNKRHYYLASCLALLFSTASYAEVDCELQPVIEANLSLNQNQLASNGGYISSQLGIRNESCETVKFKYWLSIKGPEGIYFPAKAVVGVDTAQQESDALTDGRMLNVTRGFWVPEYMADGKYTVSLQVVAENGEVFKANQEFVKGGDLNSLPELNGLTIDIKNQFGINSVESTGGFVPFTIDLNNGREGEAKVEFWMTAVGPDGLIIPVHSREKWMIIAGNTFSKVRGINFDKSYPAGEYTINAQVVDIVSGERVEQLMTVVKK
# Columns and labels:
# Assay in all cases: glycan array binding signal (z-score within array); higher = stronger binding
# Conditions in all cases: glycan notation: IUPAC condensed, linker removed
# [1] = target: Gal(b1-4)Glc
# In short: (§1)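 Glycan array binding is given as a within-array Z-score, which can be read as non-binding when negative. The arrays, 3228 of them, came from the Consortium for Functional Glycomics database and were retained only where the protein sequence was available. Z-scores were averaged across arrays of the same protein sequence at different concentrations or buffers and across linkers.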
# [2] = target: Gal(b1-4)Glc6S
# In short: as §1
# [3] = target: Gal(b1-4)GlcNAc
# In short: as §1
# [4] = target: Gal(b1-4)GlcNAc(a1-6)Gal(b1-4)GlcNAc
# In short: as §1
# [5] = target: Gal(b1-4)GlcNAc(b1-2)Man
# In short: as §1
# [6] = target: Gal(b1-4)GlcNAc(b1-2)Man(a1-3)Man(b1-4)GlcNAc(b1-4)GlcNAc
# In short: as §1
# [7] = target: Gal(b1-4)GlcNAc(b1-2)Man(a1-3)[Gal(b1-4)GlcNAc(b1-2)Man(a1-6)]Man(b1-4)GlcNAc(b1-4)GlcNAc
# In short: as §1
# [8] = target: Gal(b1-4)GlcNAc(b1-2)Man(a1-3)[Gal(b1-4)GlcNAc(b1-2)Man(a1-6)]Man(b1-4)GlcNAc(b1-4)[Fuc(a1-6)]GlcNAc
# In short: as §1
# [9] = target: Gal(b1-4)GlcNAc(b1-2)Man(a1-3)[Gal(b1-4)GlcNAc(b1-2)Man(a1-6)][Gal(b1-4)GlcNAc(b1-4)]Man(b1-4)GlcNAc(b1-4)[Fuc(a1-6)]GlcNAc
# In short: as §1
# [10] = target: Gal(b1-4)GlcNAc(b1-2)Man(a1-3)[Gal(b1-4)GlcNAc(b1-2)Man(a1-6)][GlcNAc(b1-4)]Man(b1-4)GlcNAc(b1-4)[Fuc(a1-6)]GlcNAc
# In short: as §1
# [11] = target: Gal(b1-4)GlcNAc(b1-2)Man(a1-3)[GlcNAc(b1-2)Man(a1-6)]Man(b1-4)GlcNAc(b1-4)GlcNAc
# In short: as §1
# [12] = target: Gal(b1-4)GlcNAc(b1-2)Man(a1-3)[GlcNAc(b1-4)][Gal(b1-4)GlcNAc(b1-2)Man(a1-6)]Man(b1-4)GlcNAc(b1-4)GlcNAc
# In short: as §1
# [13] = target: Gal(b1-4)GlcNAc(b1-2)Man(a1-3)[Man(a1-6)]Man(b1-4)GlcNAc(b1-4)GlcNAc
# In short: as §1
# [14] = target: Gal(b1-4)GlcNAc(b1-2)Man(a1-6)Man(b1-4)GlcNAc(b1-4)GlcNAc
# In short: as §1
# [15] = target: Gal(b1-4)GlcNAc(b1-2)Man(a1-6)[GlcNAc(b1-2)Man(a1-3)]Man(b1-4)GlcNAc(b1-4)GlcNAc
# In short: as §1
# [16] = target: Gal(b1-4)GlcNAc(b1-2)Man(a1-6)[Man(a1-3)]Man(b1-4)GlcNAc(b1-4)GlcNAc
# In short: as §1
# [17] = target: Gal(b1-4)GlcNAc(b1-2)[Gal(b1-4)GlcNAc(b1-4)]Man(a1-3)[Gal(b1-4)GlcNAc(b1-2)Man(a1-6)]Man(b1-4)GlcNAc(b1-4)GlcNAc
# In short: as §1
# [18] = target: Gal(b1-4)GlcNAc(b1-2)[Gal(b1-4)GlcNAc(b1-4)]Man(a1-3)[Gal(b1-4)GlcNAc(b1-2)[Gal(b1-4)GlcNAc(b1-6)]Man(a1-6)]Man(b1-4)GlcNAc(b1-4)GlcNAc
# In short: as §1
# [19] = target: Gal(b1-4)GlcNAc(b1-2)[Gal(b1-4)GlcNAc(b1-4)]Man(a1-3)[Gal(b1-4)GlcNAc(b1-2)[Gal(b1-4)GlcNAc(b1-6)]Man(a1-6)][GlcNAc(b1-4)]Man(b1-4)GlcNAc(b1-4)GlcNAc
# In short: as §1
# [20] = target: Gal(b1-4)GlcNAc(b1-2)[Gal(b1-4)GlcNAc(b1-4)]Man(a1-3)[GlcNAc(b1-4)][Gal(b1-4)GlcNAc(b1-2)Man(a1-6)]Man(b1-4)GlcNAc(b1-4)GlcNAc
# In short: as §1
# [21] = target: Gal(b1-4)GlcNAc(b1-2)[Gal(b1-4)GlcNAc(b1-6)]Man(a1-6)[Gal(b1-4)GlcNAc(b1-2)Man(a1-3)]Man(b1-4)GlcNAc(b1-4)GlcNAc
# In short: as §1
# [22] = target: Gal(b1-4)GlcNAc(b1-2)[Gal(b1-4)GlcNAc(b1-6)]Man(a1-6)[Gal(b1-4)GlcNAc(b1-2)Man(a1-3)]Man(b1-4)GlcNAc(b1-4)[Fuc(a1-6)]GlcNAc
# In short: as §1
# [23] = target: Gal(b1-4)GlcNAc(b1-2)[Gal(b1-4)GlcNAc(b1-6)]Man(a1-6)[GlcNAc(b1-4)][Gal(b1-4)GlcNAc(b1-2)Man(a1-3)]Man(b1-4)GlcNAc(b1-4)GlcNAc
# In short: as §1
# [24] = target: Gal(b1-4)GlcNAc(b1-2)[Gal(b1-4)GlcNAc(b1-6)]Man(a1-6)[GlcNAc(b1-4)][Gal(b1-4)GlcNAc(b1-2)[Gal(b1-4)GlcNAc(b1-4)]Man(a1-3)]Man(b1-4)GlcNAc(b1-4)[Fuc(a1-6)]GlcNAc
# In short: as §1
# [25] = target: Gal(b1-4)GlcNAc(b1-3)Gal(b1-3)GalNAc
# In short: as §1
# [26] = target: Gal(b1-4)GlcNAc(b1-3)Gal(b1-3)GlcNAc
# In short: as §1
# [27] = target: Gal(b1-4)GlcNAc(b1-3)Gal(b1-4)Glc
# In short: as §1
# [28] = target: Gal(b1-4)GlcNAc(b1-3)Gal(b1-4)GlcNAc
# In short: as §1
# [29] = target: Gal(b1-4)GlcNAc(b1-3)Gal(b1-4)GlcNAc(b1-2)Man(a1-3)[Gal(b1-4)GlcNAc(b1-3)Gal(b1-4)GlcNAc(b1-2)Man(a1-6)]Man(b1-4)GlcNAc(b1-4)GlcNAc
# In short: as §1
# [30] = target: Gal(b1-4)GlcNAc(b1-3)Gal(b1-4)GlcNAc(b1-2)Man(a1-3)[Gal(b1-4)GlcNAc(b1-3)Gal(b1-4)GlcNAc(b1-2)Man(a1-6)]Man(b1-4)GlcNAc(b1-4)[Fuc(a1-6)]GlcNAc
# In short: as §1
# [31] = target: Gal(b1-4)GlcNAc(b1-3)Gal(b1-4)GlcNAc(b1-2)[Gal(b1-4)GlcNAc(b1-3)Gal(b1-4)GlcNAc(b1-6)]Man(a1-6)[Gal(b1-4)GlcNAc(b1-3)Gal(b1-4)GlcNAc(b1-2)Man(a1-3)]Man(b1-4)GlcNAc(b1-4)GlcNAc
# In short: as §1
# [32] = target: Gal(b1-4)GlcNAc(b1-3)Gal(b1-4)GlcNAc(b1-2)[Gal(b1-4)GlcNAc(b1-3)Gal(b1-4)GlcNAc(b1-6)]Man(a1-6)[Gal(b1-4)GlcNAc(b1-3)Gal(b1-4)GlcNAc(b1-2)Man(a1-3)]Man(b1-4)GlcNAc(b1-4)[Fuc(a1-6)]GlcNAc
# In short: as §1
# [33] = target: Gal(b1-4)GlcNAc(b1-3)Gal(b1-4)GlcNAc(b1-3)Gal(b1-4)GlcNAc
# In short: as §1
# [34] = target: Gal(b1-4)GlcNAc(b1-3)Gal(b1-4)GlcNAc(b1-3)Gal(b1-4)GlcNAc(b1-2)Man(a1-3)[Gal(b1-4)GlcNAc(b1-3)Gal(b1-4)GlcNAc(b1-3)Gal(b1-4)GlcNAc(b1-2)Man(a1-6)]Man(b1-4)GlcNAc(b1-4)GlcNAc
# In short: as §1
# [35] = target: Gal(b1-4)GlcNAc(b1-3)Gal(b1-4)GlcNAc(b1-3)Gal(b1-4)GlcNAc(b1-2)Man(a1-3)[Gal(b1-4)GlcNAc(b1-3)Gal(b1-4)GlcNAc(b1-3)Gal(b1-4)GlcNAc(b1-2)Man(a1-6)]Man(b1-4)GlcNAc(b1-4)[Fuc(a1-6)]GlcNAc
# In short: as §1
# [36] = target: Gal(b1-4)GlcNAc(b1-3)Gal(b1-4)GlcNAc(b1-3)Gal(b1-4)GlcNAc(b1-2)[Gal(b1-4)GlcNAc(b1-3)Gal(b1-4)GlcNAc(b1-3)Gal(b1-4)GlcNAc(b1-6)]Man(a1-6)[Gal(b1-4)GlcNAc(b1-3)Gal(b1-4)GlcNAc(b1-3)Gal(b1-4)GlcNAc(b1-2)Man(a1-3)]Man(b1-4)GlcNAc(b1-4)[Fuc(a1-6)]GlcNAc
# In short: as §1
# [37] = target: Gal(b1-4)GlcNAc(b1-3)Gal(b1-4)GlcNAc(b1-3)Gal(b1-4)GlcNAc(b1-3)Gal(b1-4)GlcNAc(b1-2)Man(a1-3)[Gal(b1-4)GlcNAc(b1-3)Gal(b1-4)GlcNAc(b1-3)Gal(b1-4)GlcNAc(b1-3)Gal(b1-4)GlcNAc(b1-2)Man(a1-6)]Man(b1-4)GlcNAc(b1-4)GlcNAc
# In short: as §1
binder,measurement,setting,value
B1,glycan array binding signal (z-score),[1],0.424
same,glycan array binding signal (z-score),[2],0.408
same,glycan array binding signal (z-score),[3],-0.461
same,glycan array binding signal (z-score),[4],-1.11
same,glycan array binding signal (z-score),[5],-0.365
same,glycan array binding signal (z-score),[6],0.354
same,glycan array binding signal (z-score),[7],-0.069
same,glycan array binding signal (z-score),[8],0.535
same,glycan array binding signal (z-score),[9],2.73
same,glycan array binding signal (z-score),[10],-0.287
same,glycan array binding signal (z-score),[11],-0.515
same,glycan array binding signal (z-score),[12],-0.938
same,glycan array binding signal (z-score),[13],1.48
same,glycan array binding signal (z-score),[14],-0.982
same,glycan array binding signal (z-score),[15],-1.26
same,glycan array binding signal (z-score),[16],-0.611
same,glycan array binding signal (z-score),[17],-1.2
same,glycan array binding signal (z-score),[18],0.916
same,glycan array binding signal (z-score),[19],0.191
same,glycan array binding signal (z-score),[20],-0.125
same,glycan array binding signal (z-score),[21],-0.188
same,glycan array binding signal (z-score),[22],1.14
same,glycan array binding signal (z-score),[23],0.262
same,glycan array binding signal (z-score),[24],0.642
same,glycan array binding signal (z-score),[25],-0.423
same,glycan array binding signal (z-score),[26],-0.596
same,glycan array binding signal (z-score),[27],-0.269
same,glycan array binding signal (z-score),[28],-0.048
same,glycan array binding signal (z-score),[29],0.31
same,glycan array binding signal (z-score),[30],0.281
same,glycan array binding signal (z-score),[31],0.839
same,glycan array binding signal (z-score),[32],0.171
same,glycan array binding signal (z-score),[33],0.005
same,glycan array binding signal (z-score),[34],0.826
same,glycan array binding signal (z-score),[35],0.84
same,glycan array binding signal (z-score),[36],0.801
same,glycan array binding signal (z-score),[37],0.191

# Random excerpt: 2 entries already listed.
binder,measurement,setting,value
B1,glycan array binding signal (z-score),[10],-0.287
same,glycan array binding signal (z-score),[12],-0.938
